Laboratory results taken from the supplement of paper PMC11006884.
Most of the targets with a hit are listed elsewhere, so they are rarer here than in the full data. The data scatter; read single values as rough. The entries are a selection whose mix differs from that of the whole data set.

The chains behind the UniProt entries cited, without tags or fusion partners. Where a name states a change or a piece, a line headed by the entry shows the natural chain unless it says otherwise.
UniProt Q9BVG4: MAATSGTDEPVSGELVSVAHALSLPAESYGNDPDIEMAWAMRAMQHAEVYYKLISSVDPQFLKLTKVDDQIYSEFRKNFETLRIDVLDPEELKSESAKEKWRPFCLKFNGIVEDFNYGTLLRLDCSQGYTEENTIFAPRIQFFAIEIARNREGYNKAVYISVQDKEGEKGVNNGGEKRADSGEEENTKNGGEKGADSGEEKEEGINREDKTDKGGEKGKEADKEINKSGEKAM
UniProt Q9BYI3: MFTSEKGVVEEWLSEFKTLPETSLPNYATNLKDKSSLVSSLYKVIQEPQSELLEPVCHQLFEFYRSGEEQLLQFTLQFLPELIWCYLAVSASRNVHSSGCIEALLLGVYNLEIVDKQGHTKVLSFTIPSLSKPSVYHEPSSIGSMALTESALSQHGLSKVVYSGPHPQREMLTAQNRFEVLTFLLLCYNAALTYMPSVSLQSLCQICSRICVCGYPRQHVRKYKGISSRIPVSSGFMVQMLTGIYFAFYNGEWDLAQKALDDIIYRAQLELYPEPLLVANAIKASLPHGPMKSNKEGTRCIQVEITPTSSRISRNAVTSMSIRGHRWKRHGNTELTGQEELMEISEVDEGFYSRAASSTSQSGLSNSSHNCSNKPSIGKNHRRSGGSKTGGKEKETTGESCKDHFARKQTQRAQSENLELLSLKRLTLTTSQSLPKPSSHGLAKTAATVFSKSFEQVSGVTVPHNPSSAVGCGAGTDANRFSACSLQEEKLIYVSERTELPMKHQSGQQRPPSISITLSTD
UniProt Q9BQG0: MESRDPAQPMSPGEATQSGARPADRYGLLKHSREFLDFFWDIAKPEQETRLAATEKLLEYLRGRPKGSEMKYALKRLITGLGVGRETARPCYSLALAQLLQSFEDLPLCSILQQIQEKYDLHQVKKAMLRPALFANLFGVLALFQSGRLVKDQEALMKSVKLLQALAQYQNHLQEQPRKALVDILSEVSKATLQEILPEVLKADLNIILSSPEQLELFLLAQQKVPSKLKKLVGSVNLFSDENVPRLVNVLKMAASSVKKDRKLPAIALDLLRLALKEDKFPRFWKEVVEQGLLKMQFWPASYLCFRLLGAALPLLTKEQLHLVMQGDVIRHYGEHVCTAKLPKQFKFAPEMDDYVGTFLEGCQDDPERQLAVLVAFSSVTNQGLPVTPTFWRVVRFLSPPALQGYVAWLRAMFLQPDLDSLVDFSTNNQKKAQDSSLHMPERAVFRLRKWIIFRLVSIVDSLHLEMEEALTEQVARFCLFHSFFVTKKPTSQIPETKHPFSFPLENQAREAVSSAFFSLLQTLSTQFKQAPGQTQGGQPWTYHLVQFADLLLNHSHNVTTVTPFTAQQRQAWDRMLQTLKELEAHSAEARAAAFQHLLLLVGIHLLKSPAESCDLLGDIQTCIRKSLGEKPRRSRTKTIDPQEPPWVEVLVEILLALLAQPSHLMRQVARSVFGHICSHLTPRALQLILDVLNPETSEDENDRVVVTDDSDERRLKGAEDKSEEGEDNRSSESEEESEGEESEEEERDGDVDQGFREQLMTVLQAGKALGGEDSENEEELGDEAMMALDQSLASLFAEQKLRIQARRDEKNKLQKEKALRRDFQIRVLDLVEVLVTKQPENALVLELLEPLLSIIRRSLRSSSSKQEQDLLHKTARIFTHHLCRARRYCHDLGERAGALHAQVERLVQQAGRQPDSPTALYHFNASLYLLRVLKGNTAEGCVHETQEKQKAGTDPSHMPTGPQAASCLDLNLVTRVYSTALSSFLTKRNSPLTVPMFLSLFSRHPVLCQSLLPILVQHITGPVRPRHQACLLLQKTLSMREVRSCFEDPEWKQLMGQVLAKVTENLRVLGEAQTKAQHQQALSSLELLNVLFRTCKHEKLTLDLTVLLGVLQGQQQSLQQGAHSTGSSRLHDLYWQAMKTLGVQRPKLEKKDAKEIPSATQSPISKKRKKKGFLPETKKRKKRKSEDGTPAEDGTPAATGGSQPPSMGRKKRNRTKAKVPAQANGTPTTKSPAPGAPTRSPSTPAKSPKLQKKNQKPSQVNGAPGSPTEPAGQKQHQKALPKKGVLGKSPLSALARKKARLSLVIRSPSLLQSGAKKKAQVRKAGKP
UniProt Q9BTT6: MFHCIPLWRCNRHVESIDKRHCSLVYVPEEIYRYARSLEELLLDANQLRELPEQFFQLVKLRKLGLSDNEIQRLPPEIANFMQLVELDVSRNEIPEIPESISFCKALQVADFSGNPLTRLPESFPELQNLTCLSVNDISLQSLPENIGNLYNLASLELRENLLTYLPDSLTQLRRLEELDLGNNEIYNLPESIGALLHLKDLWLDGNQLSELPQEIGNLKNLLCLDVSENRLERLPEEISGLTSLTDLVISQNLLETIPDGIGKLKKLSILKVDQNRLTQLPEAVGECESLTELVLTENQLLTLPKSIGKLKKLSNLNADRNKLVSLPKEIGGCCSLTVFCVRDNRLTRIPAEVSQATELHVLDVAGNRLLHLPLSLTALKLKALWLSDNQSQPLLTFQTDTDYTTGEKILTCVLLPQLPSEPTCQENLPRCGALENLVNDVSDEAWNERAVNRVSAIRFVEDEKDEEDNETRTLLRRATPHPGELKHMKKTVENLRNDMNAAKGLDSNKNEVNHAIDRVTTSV
UniProt Q9C0C9: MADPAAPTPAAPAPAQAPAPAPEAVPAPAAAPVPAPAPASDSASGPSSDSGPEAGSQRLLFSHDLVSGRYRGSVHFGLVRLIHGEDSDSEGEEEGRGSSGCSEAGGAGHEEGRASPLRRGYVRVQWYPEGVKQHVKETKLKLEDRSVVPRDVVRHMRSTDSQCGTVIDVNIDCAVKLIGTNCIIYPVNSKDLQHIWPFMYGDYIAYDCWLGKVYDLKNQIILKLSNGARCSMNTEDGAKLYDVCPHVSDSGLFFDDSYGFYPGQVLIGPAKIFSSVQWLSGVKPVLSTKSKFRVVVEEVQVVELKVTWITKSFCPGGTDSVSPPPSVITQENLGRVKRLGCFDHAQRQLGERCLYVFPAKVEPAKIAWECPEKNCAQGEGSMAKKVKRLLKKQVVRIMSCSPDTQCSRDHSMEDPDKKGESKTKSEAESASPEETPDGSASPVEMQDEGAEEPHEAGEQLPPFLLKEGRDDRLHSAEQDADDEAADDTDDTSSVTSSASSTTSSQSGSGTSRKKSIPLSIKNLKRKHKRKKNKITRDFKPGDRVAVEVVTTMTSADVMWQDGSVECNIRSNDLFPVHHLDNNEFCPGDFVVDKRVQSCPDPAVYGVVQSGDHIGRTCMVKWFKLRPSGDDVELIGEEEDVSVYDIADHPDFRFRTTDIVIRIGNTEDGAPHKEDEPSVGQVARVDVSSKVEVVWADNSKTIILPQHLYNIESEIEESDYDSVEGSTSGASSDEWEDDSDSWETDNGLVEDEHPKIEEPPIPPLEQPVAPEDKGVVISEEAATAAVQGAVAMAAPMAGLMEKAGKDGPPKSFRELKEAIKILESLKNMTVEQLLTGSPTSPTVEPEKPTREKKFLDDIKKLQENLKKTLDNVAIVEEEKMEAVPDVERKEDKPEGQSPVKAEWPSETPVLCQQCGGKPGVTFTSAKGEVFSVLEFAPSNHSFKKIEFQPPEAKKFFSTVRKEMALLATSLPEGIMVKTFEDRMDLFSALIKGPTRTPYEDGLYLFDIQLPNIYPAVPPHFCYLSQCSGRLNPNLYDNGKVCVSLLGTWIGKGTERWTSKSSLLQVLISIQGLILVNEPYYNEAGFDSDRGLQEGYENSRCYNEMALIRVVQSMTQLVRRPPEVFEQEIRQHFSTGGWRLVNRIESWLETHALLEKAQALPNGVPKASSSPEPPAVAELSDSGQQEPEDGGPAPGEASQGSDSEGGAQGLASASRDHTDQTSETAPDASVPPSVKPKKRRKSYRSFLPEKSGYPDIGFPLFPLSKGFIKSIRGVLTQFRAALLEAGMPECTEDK
UniProt Q9H270: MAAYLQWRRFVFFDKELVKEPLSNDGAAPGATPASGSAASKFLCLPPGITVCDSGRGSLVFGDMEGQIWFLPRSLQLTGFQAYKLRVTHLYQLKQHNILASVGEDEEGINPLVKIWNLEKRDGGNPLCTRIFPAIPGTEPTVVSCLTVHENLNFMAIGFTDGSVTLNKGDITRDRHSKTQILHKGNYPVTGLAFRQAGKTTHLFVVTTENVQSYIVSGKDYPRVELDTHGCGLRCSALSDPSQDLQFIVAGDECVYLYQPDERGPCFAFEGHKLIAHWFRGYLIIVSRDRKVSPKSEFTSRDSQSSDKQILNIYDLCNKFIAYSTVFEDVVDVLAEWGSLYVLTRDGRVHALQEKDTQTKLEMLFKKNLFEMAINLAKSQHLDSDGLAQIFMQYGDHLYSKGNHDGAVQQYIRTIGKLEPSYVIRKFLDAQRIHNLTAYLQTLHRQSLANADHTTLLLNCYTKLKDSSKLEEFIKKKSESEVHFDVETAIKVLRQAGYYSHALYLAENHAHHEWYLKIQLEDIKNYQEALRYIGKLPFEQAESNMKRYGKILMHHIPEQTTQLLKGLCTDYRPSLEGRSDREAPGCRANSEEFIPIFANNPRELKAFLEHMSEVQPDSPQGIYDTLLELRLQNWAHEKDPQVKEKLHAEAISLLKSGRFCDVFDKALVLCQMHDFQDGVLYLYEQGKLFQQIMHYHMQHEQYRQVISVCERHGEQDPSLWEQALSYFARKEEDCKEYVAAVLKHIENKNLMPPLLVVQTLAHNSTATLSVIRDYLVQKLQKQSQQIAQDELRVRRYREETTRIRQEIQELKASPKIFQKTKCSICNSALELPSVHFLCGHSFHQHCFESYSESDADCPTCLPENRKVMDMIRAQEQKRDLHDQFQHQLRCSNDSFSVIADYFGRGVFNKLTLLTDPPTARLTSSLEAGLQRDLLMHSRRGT
UniProt Q9BRA2: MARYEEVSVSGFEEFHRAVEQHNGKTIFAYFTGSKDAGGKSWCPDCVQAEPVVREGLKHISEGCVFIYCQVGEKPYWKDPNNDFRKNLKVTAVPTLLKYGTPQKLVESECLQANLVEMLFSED
UniProt Q9BSH5: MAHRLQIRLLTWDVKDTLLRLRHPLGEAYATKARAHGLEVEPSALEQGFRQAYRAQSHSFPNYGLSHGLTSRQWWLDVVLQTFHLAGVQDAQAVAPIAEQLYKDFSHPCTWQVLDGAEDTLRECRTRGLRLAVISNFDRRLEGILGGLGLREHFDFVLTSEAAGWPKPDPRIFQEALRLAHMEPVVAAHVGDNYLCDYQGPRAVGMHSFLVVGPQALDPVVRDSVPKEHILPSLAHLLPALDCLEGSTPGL
UniProt Q9BSD7: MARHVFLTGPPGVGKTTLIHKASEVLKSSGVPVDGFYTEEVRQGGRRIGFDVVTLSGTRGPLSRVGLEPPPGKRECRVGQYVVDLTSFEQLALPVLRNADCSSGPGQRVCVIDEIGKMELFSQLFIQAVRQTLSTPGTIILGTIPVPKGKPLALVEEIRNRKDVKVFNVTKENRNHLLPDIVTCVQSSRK
UniProt Q9H063: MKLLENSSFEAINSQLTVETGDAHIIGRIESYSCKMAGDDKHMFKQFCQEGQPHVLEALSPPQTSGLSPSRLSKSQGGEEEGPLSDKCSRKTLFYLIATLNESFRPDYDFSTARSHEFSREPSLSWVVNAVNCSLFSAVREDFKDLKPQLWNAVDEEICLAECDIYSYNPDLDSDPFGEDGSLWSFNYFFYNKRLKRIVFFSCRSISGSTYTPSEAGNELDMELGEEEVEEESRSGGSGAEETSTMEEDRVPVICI
UniProt Q9BUP0: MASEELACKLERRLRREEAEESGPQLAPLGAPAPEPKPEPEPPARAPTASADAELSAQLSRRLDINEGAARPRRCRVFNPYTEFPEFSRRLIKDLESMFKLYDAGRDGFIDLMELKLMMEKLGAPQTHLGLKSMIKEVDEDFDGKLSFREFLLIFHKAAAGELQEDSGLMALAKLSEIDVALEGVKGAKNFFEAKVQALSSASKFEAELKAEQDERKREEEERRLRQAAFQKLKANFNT
UniProt Q9BVL4, whole entry: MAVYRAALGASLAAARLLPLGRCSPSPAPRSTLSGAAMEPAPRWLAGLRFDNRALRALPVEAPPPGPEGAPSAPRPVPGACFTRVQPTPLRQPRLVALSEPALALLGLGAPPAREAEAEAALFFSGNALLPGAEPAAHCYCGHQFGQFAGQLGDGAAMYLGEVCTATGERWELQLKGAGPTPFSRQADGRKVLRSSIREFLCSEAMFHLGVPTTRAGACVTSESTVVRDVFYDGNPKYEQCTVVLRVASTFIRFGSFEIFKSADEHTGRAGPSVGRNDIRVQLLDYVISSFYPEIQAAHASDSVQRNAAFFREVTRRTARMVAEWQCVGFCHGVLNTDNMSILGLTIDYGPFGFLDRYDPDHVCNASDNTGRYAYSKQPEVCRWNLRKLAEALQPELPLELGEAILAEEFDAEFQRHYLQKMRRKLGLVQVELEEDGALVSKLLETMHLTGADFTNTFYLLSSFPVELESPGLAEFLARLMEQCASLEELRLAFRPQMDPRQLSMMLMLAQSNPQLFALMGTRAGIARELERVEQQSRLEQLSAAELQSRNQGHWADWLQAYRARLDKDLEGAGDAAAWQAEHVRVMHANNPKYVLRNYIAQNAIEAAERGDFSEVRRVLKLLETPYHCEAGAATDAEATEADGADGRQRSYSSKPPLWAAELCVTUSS

Compound: COC(=O)/C=C/c1ccccc1 [methyl cinnamate]
Experiment: log2 ratio of iodoacetamide-alkyne labeling of the cysteine site, DMSO over compound (competition); higher = stronger covalent engagement of the cysteine by the compound, active = 1 or more
Conditions: 500 µM; treatment time 1 h; system: HEK293T cell lysate
Procedure, shortened: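 HEK293T lysate (2 mg/mL) was incubated with electrophile (500 µM) or vehicle for 1 h at ambient temperature and then with iodoacetamide alkyne for 1 h. Labelled proteins were clicked to sCIP-TMT reagents, pooled, digested, enriched on streptavidin and measured by Orbitrap Eclipse LC-MS/MS with FAIMS, with FragPipe quantification. The per-cysteine log2 competition ratio is mean control-channel reporter intensity over mean compound-channel reporter intensity. Across three replicates with duplicate channels, cysteines quantified in only one replicate were excluded.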

| Target | log2 ratio of iodoacetamide-alkyne labeling |
| --- | --- |
| UniProt Q9BVG4_C125 | inactive: 0.33 |
| FAM126A C300 (UniProt Q9BYI3) | inactive: 0.0359 |
| MYBBP1A C968 (UniProt Q9BQG0) | inactive: -0.0359 |
| TRMT61B C143 (UniProt Q9BVS5) | inactive: 0.321 |
| UNK C383 (UniProt Q9C0B0) | inactive: 0.354 |
| UniProt Q9BTT6_C22 | inactive: -0.0453 |
| EGLN1 C201 (UniProt Q9GZT9) | inactive: 0.0087 |
| UniProt Q9BXP5_C441 | inactive: 0.111 |
| C17orf80 C164 (UniProt Q9BSJ5) | inactive: 0.421 |
| UBE2O C406 (UniProt Q9C0C9) | inactive: 0.345 |
| UPF3B C319 (UniProt Q9BZI7) | inactive: 0.449 |
| VPS11 C890 (UniProt Q9H270) | inactive: 0.222 |
| UniProt Q9BVL2_C252 | inactive: 0.0467 |
| TXNDC17 C43 (UniProt Q9BRA2) | inactive: 0.916 |
| HDHD3 C243 (UniProt Q9BSH5) | inactive: 0.0355 |
| EGLN1 C127 (UniProt Q9GZT9) | inactive: 0.44 |
| UniProt Q9BSD7_C110 | inactive: -0.0745 |
| RACGAP1 C419 (UniProt Q9H0H5) | inactive: -0.0179 |
| UniProt Q9C0E8_C149 | inactive: 0.3 |

As a working copy, part of the list above.

| Target | log2 ratio of iodoacetamide-alkyne labeling |
| --- | --- |
| C17orf80 C164 (UniProt Q9BSJ5) | inactive: 0.421 |
| UBE2O C406 (UniProt Q9C0C9) | inactive: 0.345 |
| UPF3B C319 (UniProt Q9BZI7) | inactive: 0.449 |

The listing continues.

| Target | log2 ratio of iodoacetamide-alkyne labeling |
| --- | --- |
| UniProt Q9GZT3_C48 | inactive: 0.00622 |
| POLDIP3 C303 (UniProt Q9BY77) | inactive: -0.0781 |
| UniProt Q9H019_C52 | inactive: 0.199 |
| UniProt Q9BSD7_C101 | inactive: 0.279 |
| DESI2 C108 (UniProt Q9BSY9) | inactive: 0.441 |
| DIDO1 C455 (UniProt Q9BTC0) | inactive: 0.313 |
| WDR33 C120 (UniProt Q9C0J8) | inactive: 0.208 |
| GINS4 C53 (UniProt Q9BRT9) | inactive: 0.261 |
| UniProt Q9BV86_C195 | inactive: 0.188 |
| MAF1 C88 (UniProt Q9H063) | inactive: 0.436 |
| DIDO1 C1665 (UniProt Q9BTC0) | inactive: 0.525 |
| KATNAL1 C313 (UniProt Q9BW62) | inactive: -0.126 |
| WDR33 C220 (UniProt Q9C0J8) | inactive: 0.116 |
| NUF2 C377 (UniProt Q9BZD4) | inactive: 0.105 |
| EFHD1 C8 (UniProt Q9BUP0) | inactive: 0.401 |
| TNKS1BP1 C1296 (UniProt Q9C0C2) | inactive: 0.318 |
| RIOK1 C264 (UniProt Q9BRS2) | inactive: 0.0384 |
| UniProt Q9BVL4_C629 | inactive: 0.193 |
